Each number is a percent effect as filed.
The controls that fix the scale are not given in the record; negative values are as filed.
This is an unselected part of the compounds tested.
Two or more numbers in one place are separate tests of the same structure; such repeats can differ widely.

A: 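Phenotypic screen: M. tuberculosis growth, cholesterol and DPPC medium, 4 days; the read-out is not stated. Concentration: 50 µM. Direction is inferred from retests: higher values go with more growth inhibition. Size under these conditions: about 69,000 compounds, about 370 of them at 50% or above in at least one test.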
B: 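Growth of Mycobacterium tuberculosis over 3 days (7H9 medium with glucose and tyloxapol); the read-out is not stated. Concentration: 50 µM. Higher reads as more growth inhibition (inferred: compounds with an IC50 in retests scored well above the rest). Size under these conditions: about 69,000 compounds, about 760 of them at 50% or above in at least one test.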

- O=C(O)C(F)(F)F.[H][C@@]12CCCO[C@]1([H])[C@H](NC(=O)CC1CC1)CN(Cc1ccc(C)s1)C2 : A: -1.272%; B: 6.696% and 15.15%
- CC(C)C(C(=O)N1CCN(Cc2cscn2)CC1)n1cncn1 (centres undefined) : A: -26.71%; B: -11.13%
- CC(C)CCN1CCc2cc(C(=O)N(C)C)c(NCC3CC3)nc2CC1.O=C(O)C(F)(F)F.O=C(O)C(F)(F)F : A: 10.28%; B: 15.03%
- CCCN1CCCn2nc(CNS(=O)(=O)c3ccc(C)cc3)cc2C1 : A: -21.29%; B: -6.637%
- Cc1cc(C)n(NC(=O)c2cccc3c2OCC3)c(=O)c1 : A: 2.874% and 3.943%; B: 1.794%
- CCN1CCC2(CC1)CC(CC(=O)N(C)C)c1ccc(F)cc12 (centres undefined) : A: -54.57%; B: -36.44%
- O=C(c1cn2ccsc2n1)N1CCOCC(O)(CN2CCCC2)C1 (centres undefined) : A: -18.81%; B: -33.33%
- CC(C)C(=O)Nc1ccc(Oc2ccc3c(c2)OCO3)nc1 : A: -15.88%; B: 13.99%
- [H][C@]12CCN(Cc3cccs3)[C@@]1([H])C[C@H](C(=O)N1CCOCC1)O2 : A: 0.5% and -7.34%; B: -13.02%
- CCS(=O)(=O)N1CCN(C(C)c2ncc(-c3ccccc3)o2)CC1 (centres undefined) : A: 2.526%; B: 3.459%
- [H][C@]12CC[C@]([H])(CN(C3Cc4ccccc4C3)C1)N(C(=O)C1CCOCC1)C2 : A: -0.5145%; B: -0.05461% and -6.869%
- Cc1ccc(O)c(C(=O)N2CCC(CN3CCCCCC3)CC2)c1 : A: -23.32%; B: -40.91%
- CN(C)C(=O)Cc1nc(CN2CCCC2Cn2cccn2)cs1 (centres undefined) : A: 11.58%; B: 10.85%
- Cc1ncccc1C(=O)Nc1cccc(C[S+](C)[O-])c1C (centres undefined) : A: -5.014%; B: 0.8384% and 11.36%
- CCc1[nH]c2c(CNC(=O)C3CCN(C)C3)cc(C)cc2c1C (centres undefined) : A: 9.951%; B: 14.86% and 10.34%
- CCCOC(=O)C(C)Sc1nnnn1C1CCOCC1 (centres undefined) : A: 6.769%; B: 14.16%
- O=C(c1cnn2c1OCCC2)N1CCC2(CC1)OCCO2 : A: -2.54%; B: 20.97%
- COc1ccc(C)cc1C(C)NC(=O)CCn1cncn1 (centres undefined) : A: -22.49%; B: -10.75%
- Cc1ccc2c(c1)OC(C)(C)CC2NC(=O)C1CCN(S(C)(=O)=O)CC1 (centres undefined) : A: -0.4911%; B: -0.7279%
- [H][C@@]12CCN(CC3CC3)C(=O)[C@@]1([H])CN(c1ncc(C)cn1)C2 : A: -7.973%; B: -24.17% and -12.45%
- CCc1nc(C)ncc1C(=O)N1CC(C)CN(C)c2ccccc21 (centres undefined) : A: 13.43%; B: 15.92%
- CCNc1nc(C)c(C(=O)N2CCN(c3ncccc3C)CC2)s1 : A: 3.682%; B: 15.75%
- O=C(O)C(F)(F)F.[H][C@@]12CCN(C3CCOCC3)[C@]1([H])CCC(=O)N2Cc1csc(C)n1 : A: -1.593%; B: 6.922%
- Cn1cc(CN2CCCC3(CCCN3S(C)(=O)=O)C2)cn1.O=C(O)C(F)(F)F (centres undefined) : A: -28.47%; B: -10.17%
- CC(C)N1CCCC(C(=O)NCCc2csc(-c3ccncc3)n2)C1 (centres undefined) : A: -38.75%; B: -14.86%
- COCCc1noc(C2CCN(S(=O)(=O)c3cccs3)CC2)n1 : A: -28.4%; B: -25.89%
- O=C(O)CCC(=O)Nc1nn(Cc2ccccc2Cl)cc1Cl : A: 12.8%; B: -27.81%
- OCCN1CCC(CNCc2cn(-c3ccccc3)nn2)CC1 : A: -23.25%; B: -12.29% and 12.71%
- CN(Cc1nnc(-c2ccco2)o1)CC1CCCN1c1cccnn1 (centres undefined) : A: -22.21%; B: -11.17%
- O=C(Nc1ccccc1Cn1cccn1)N1CCCC(N2CCCC2)C1 (centres undefined) : A: -15.6%; B: -14.59%
- O=C(c1cccn2ccnc12)N1CCCN(c2cccnn2)CC1 : A: -17.7%; B: -1.888%
- CC(c1nc(-c2ccccc2)no1)N1CCc2c(ncn2C2CC2)C1 (centres undefined) : A: 9.463%; B: 38.82%
- CC(C)(C)c1cc(NC(=O)CN2CCCC2Cn2cncn2)on1 (centres undefined) : A: 0.03835%; B: -2.705%
- Cc1cc(C(=O)N2CCCS2(=O)=O)c(C)o1 : A: -7.506%; B: 8.263%
- Cc1noc(C)c1C(=O)NCc1cc[nH]n1 : A: 2.751%; B: -28.82% and 7.712%
- COCC(=O)Nc1ccnn1-c1ccc(Cl)cc1 : A: -18.3%; B: -5.588%
- CCCn1nnnc1CSCc1cn2c(C)cccc2n1 : A: 25.55%; B: 3.27%
- NC(=O)CC1CCN(C(=O)c2csc(-c3ccccc3F)n2)CC1 : A: -23.26% and -5.264%; B: -28.95%
- COc1ccc(-n2ccc(C(=O)NCCn3ccnc3)n2)cc1 : A: -14.58%; B: 14.68%
- Cc1cnn(CCNCc2ccc(OCc3cccnc3)cc2)c1 : A: 2.711%; B: -16.14%

5 of the entries, repeated:

- O=C(c1cccn2ccnc12)N1CCCN(c2cccnn2)CC1 : A: -17.7%; B: -1.888%
- COCCc1noc(C2CCN(S(=O)(=O)c3cccs3)CC2)n1 : A: -28.4%; B: -25.89%
- [H][C@]12CC[C@]([H])(CN(C3Cc4ccccc4C3)C1)N(C(=O)C1CCOCC1)C2 : A: -0.5145%; B: -0.05461% and -6.869%
- CCCn1nnnc1CSCc1cn2c(C)cccc2n1 : A: 25.55%; B: 3.27%
- CCc1[nH]c2c(CNC(=O)C3CCN(C)C3)cc(C)cc2c1C (centres undefined) : A: 9.951%; B: 14.86% and 10.34%

From ChEMBL document CHEMBL3988442, “University of Dundee, Small-Polar-MMV Screening Library” (2021).